# PubChem BioAssay AID1259254, NCATS – 2017
# Screen: 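Genome-wide screen for genes that prevent DNA re-replication in cancer cells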 (primary screen)
# System: human HCT116 colorectal cancer cells
# Reagents: single siRNA against human genes
# Duration: 3 days
# Detection: 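Nuclei stained with Hoechst and imaged; cell-cycle phase assigned by DNA content; G2 share scaled per plate, non-targeting siRNA 0%, GMNN siRNA 100%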
# Reading the numbers: G2 robust z-score and G2 cells, % of GMNN control: higher = more G2 cells, more excess DNA replication; raw share of cells in G2: higher = larger share of cells with G2 DNA content
# Hit rule: 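An siRNA counts as active if its G2 robust z-score lies at least 5 MADs above the screen median; here such calls match roughly 38% of GMNN control or more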
# This is a random part of about 59,000 reagents tested. Of all reagents, about 1,550 (2.6%) were called active. 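G2 share is only a proxy for re-replication; each gene was hit by three separate siRNAs, and active genes were retested.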 Raw values vary from plate to plate and are shown uncorrected. Entries without a mark were called inactive. Reagents against one gene are numbered here. Not stated in the record: the amount of reagent.
Gene,reagent no.,G2 robust z-score,"G2 cells, % of GMNN control",raw share of cells in G2 (%)
FGF5,1,1.69,14.8,12.3
FGF5,2,0.828,8.79,7.31
FGF5,3,-0.402,0.138,3.58
AATF,1,1.13,10.9,6.65
AATF,2,1.75,15.3,12.8
AATF,3,0.318,5.2,5.27
AEN,1,-0.0109,2.89,5.84
AEN,2,0.0356,3.22,6.05
AEN,3,-0.448,-0.187,2.65
FAM216A,1,-0.849,-3.01,2.71
FAM216A,2,-0.587,-1.16,4.11
FAM216A,3,2.31,19.2,9.3
LCN6,1,-0.127,2.08,5.57
LCN6,2,-1.36,-6.61,2.81
LCN6,3,1.87,16.1,10.6
PBK,1,3.07,24.5,13.2
PBK,2,-0.659,-1.67,4.58
PBK,3,3.31,26.2,12.1
GGTLC1,1,-0.233,1.33,4.76
GGTLC1,2,4.68,35.9,20.8
GGTLC1,3,1.32,12.3,8.52
C8orf33,1,2.6,21.2,13.8
C8orf33,2,-0.318,0.728,4.94
C8orf33,3,-0.889,-3.29,1.83
WEE1,1,4.65,35.7,17.4
WEE1,2,1.8,15.6,10.7
WEE1,3,0.644,7.5,6.67
MED6,1,-0.917,-3.48,2.37
MED6,2,6.72 (active),50.3,28.4
MED6,3,0.519,6.62,6.11
HYAL4,1,-1.14,-5.04,2.14
HYAL4,2,0.114,3.77,5.42
HYAL4,3,-0.655,-1.64,5.71
CPNE1,1,1.58,14.1,10.2
CPNE1,2,1.17,11.2,9.62
CPNE1,3,3.15,25.1,13.7
GUCY2EP,1,-0.736,-2.21,4.95
GUCY2EP,2,-1.56,-7.97,1.37
GUCY2EP,3,2.53,20.8,13.1
MYOC,1,-1.06,-4.46,1.72
MYOC,2,-0.965,-3.82,3.88
MYOC,3,-1.42,-7.01,2.69
OR4D5,1,-0.423,-0.0107,3.19
OR4D5,2,-0.126,2.08,4.33
OR4D5,3,0.332,5.31,4.95
SLC7A7,1,-0.857,-3.07,3.61
SLC7A7,2,-0.62,-1.39,4.77
SLC7A7,3,0.282,4.95,6.79

Already shown: 3 of the entries above.
Gene,reagent no.,G2 robust z-score,"G2 cells, % of GMNN control",raw share of cells in G2 (%)
MYOC,3,-1.42,-7.01,2.69
OR4D5,1,-0.423,-0.0107,3.19
OR4D5,2,-0.126,2.08,4.33
